Laboratory results: patent publication US9684238B2, “Fluorene-type compound, photopolymerization initiator comprising said fluorene-type compound, and photosensitive composition containing said photopolymerization initiator” (TOKYO OHKA KOGYO CO., LTD., priority 2012, dated 2017)

Assays:
[1] = Evaluation 3: peeling of pattern, black photosensitive composition; set-up: key: Good: The case where the external appearance did not change and the peeling of the cured film did not occur was evaluated as good
[2] = Evaluation 3: residue, black photosensitive composition; set-up: key: Absent: The case where the residue of the coating film in the unexposed portion was absent was evaluated as absent
[3] = Evaluation 3: straightness of pattern, black photosensitive composition; set-up: key: Good: The case where a good linear pattern was formed was evaluated as good; Bad: the case where the distortion of the pattern image or unevenness at an end portion thereof was observed was evaluated as bad
[4] = 10 mJ/cm^2, development in 0.1% TMAH
[5] = 20 mJ/cm^2, development in 0.1% TMAH
[6] = 40 mJ/cm^2, development in 0.1% TMAH
[7] = 60 mJ/cm^2, development in 0.1% TMAH
[8] = 80 mJ/cm^2, development in 0.1% TMAH
[9] = 10 mJ/cm^2, unexposed portion after development
[10] = 20 mJ/cm^2, unexposed portion after development
[11] = 40 mJ/cm^2, unexposed portion after development
[12] = 60 mJ/cm^2, unexposed portion after development
[13] = 80 mJ/cm^2, unexposed portion after development

SMILES | Peeling [1, 4] | Peeling [1, 5] | Peeling [1, 6] | Peeling [1, 7] | Peeling [1, 8] | Residue [2, 9] | Residue [2, 10] | Residue [2, 11] | Residue [2, 12] | Residue [2, 13] | Straightness ([3]; 10 mJ/cm^2) | Straightness ([3]; 20 mJ/cm^2) | Straightness ([3]; 40 mJ/cm^2) | Straightness ([3]; 60 mJ/cm^2) | Straightness ([3]; 80 mJ/cm^2)
CCCC1(CCC)c2cc(C(=O)c3ccc([N+](=O)[O-])cc3)ccc2-c2ccc(C(=NOC(C)=O)C(C)C)cc21 (mixture of isomers) [Compound D-8] | Good | Good | Good | Good | Good | Absent | Absent | Absent | Absent | Absent | Good | Good | Good | Good | Good
CCCC1(CCC)c2cc(C(=NOC(C)=O)c3ccccc3C)ccc2-c2ccc([N+](=O)[O-])cc21 [Compound 1] | Good | Good | Good | Good | Good | Absent | Absent | Absent | Absent | Absent | Good | Good | Good | Good | Good
CCCCCCC1(CCCCCC)c2cc(C(=NOC(C)=O)c3ccccc3C)ccc2-c2ccc([N+](=O)[O-])cc21 [Compound 2] | Good | Good | Good | Good | Good | Absent | Absent | Absent | Absent | Absent | Good | Good | Good | Good | Good
CCCC1(CCC)c2cc(C(=O)c3ccccc3C)ccc2-c2ccc(/C(C)=N/OC(C)=O)cc21 [Compound 4] | – | Good | Good | Good | Good | Absent | Absent | Absent | Absent | Absent | Bad | Good | Good | Good | Good
CCCCCCC1(CCCCCC)c2cc(C(=O)c3ccccc3C)ccc2-c2ccc(C(C)=NOC(C)=O)cc21 [Compound 6] | – | Good | Good | Good | Good | Absent | Absent | Absent | Absent | Absent | Bad | Good | Good | Good | Good
CCCCCCC1(CCCCCC)c2cc(C(=O)c3ccccc3)ccc2-c2ccc(C(C)=NOC(C)=O)cc21 [Compound 8] | – | Good | Good | Good | Good | Absent | Absent | Absent | Absent | Absent | Bad | Good | Good | Good | Good
CCCCCCC1(CCCCCC)c2cc(C(=O)c3ccc(F)cc3)ccc2-c2ccc(/C(CC(C)N(OC(C)=O)C(C)=O)=N\OC(C)=O)cc21 (stereo not shown) [Compound 9] | – | Good | Good | Good | Good | Absent | Absent | Absent | Absent | Absent | Bad | Good | Good | Good | Good
CCn1c2ccc(C(=O)c3ccccc3C)cc2c2cc(/C(C)=N/OC(C)=O)ccc21 [Compound C-1, reference compound] | – | Good | Good | Good | Good | Absent | Absent | Absent | Absent | Absent | Bad | Good | Good | Good | Good
CCCC1(CCC)c2cc(C(=NOC(C)=O)c3ccccc3)ccc2-c2ccc([N+](=O)[O-])cc21 [Compound D-1] | Good | Good | Good | Good | Good | Absent | Absent | Absent | Absent | Absent | Good | Good | Good | Good | Good
CCCC1(CCC)c2cc(C(=NOC(C)=O)c3ccc(C(C)(C)C)cc3)ccc2-c2ccc([N+](=O)[O-])cc21 [Compound D-2] | Good | Good | Good | Good | Good | Absent | Absent | Absent | Absent | Absent | Good | Good | Good | Good | Good
CCCC1(CCC)c2cc(C(C)=NOC(C)=O)ccc2-c2ccc([N+](=O)[O-])cc21 [Compound D-3] | Good | Good | Good | Good | Good | Absent | Absent | Absent | Absent | Absent | Good | Good | Good | Good | Good
CCCC1(CCC)c2cc(C(=O)/C(C)=N/OC(C)=O)ccc2-c2ccc(C(=O)c3ccc([N+](=O)[O-])cc3)cc21 [Compound D-9] | Good | Good | Good | Good | Good | Absent | Absent | Absent | Absent | Absent | Good | Good | Good | Good | Good
CCCC1(CCC)c2cc(C(CCCCl)=NOC(C)=O)ccc2-c2ccc([N+](=O)[O-])cc21 [Compound D-12] | Good | Good | Good | Good | Good | Absent | Absent | Absent | Absent | Absent | Good | Good | Good | Good | Good
CCCC1(CCC)c2cc(C(CCCSc3ccc(Cl)cc3)=NOC(C)=O)ccc2-c2ccc([N+](=O)[O-])cc21 [Compound D-14] | Good | Good | Good | Good | Good | Absent | Absent | Absent | Absent | Absent | Good | Good | Good | Good | Good
CCCC1(CCC)c2cc(C(=O)C(CCSc3ccc(Cl)cc3)=NOC(C)=O)ccc2-c2ccc([N+](=O)[O-])cc21 [Compound D-15] | Good | Good | Good | Good | Good | Absent | Absent | Absent | Absent | Absent | Good | Good | Good | Good | Good
